These are yes or no findings as the source states them, for the method shown. A result given as binding can be weak or reduced; the word gives no strength.
Each binder was assayed against VPg of Potato virus Y, avirulent isolate LYE84 (Potato virus Y (isolate LYE84)) (assay: two-hybrid; Matchmaker GAL4 two-hybrid system 3; eIF4E1 variants fused to the GAL4 activation domain (pGADT7, AH109), VPg fused to the GAL4 binding domain (pGBKT7, Y187); after mating, growth on -LWH medium at 30°C, checked 2 to 7 days after spotting; growth as percent of pvr2^+ with VPg-PVY).

Binder | binding
pvr2/eIF4E1 (pvr2^+) with the single mutation A15V (protein, UniProt A0A1U8GR65 1-228) MATAEMEKTTTFDEVEKVKLNANEADDEVEEGEIVEETDDTTSYLSKEIATKHPLEHSWTFWFDNPVAKSKQAAWGSSLRNVYTFSTVEDFWGAYNNIHHPSKLVVGADLHCFKHKIEPKWEDPVCANGGTWKMSFSKGKSDTSWLYTLLAMIGHQFDHEDEICGAVVSVRGKGEKISLWTKNAANETAQVSIGKQWKQFLDYSDSVGFIFHDDAKRLDRNAKNRYTV | binds
pvr2/eIF4E1 (pvr2^+) with the single mutation D40G (protein, UniProt A0A1U8GR65 1-228) MATAEMEKTTTFDEAEKVKLNANEADDEVEEGEIVEETDGTTSYLSKEIATKHPLEHSWTFWFDNPVAKSKQAAWGSSLRNVYTFSTVEDFWGAYNNIHHPSKLVVGADLHCFKHKIEPKWEDPVCANGGTWKMSFSKGKSDTSWLYTLLAMIGHQFDHEDEICGAVVSVRGKGEKISLWTKNAANETAQVSIGKQWKQFLDYSDSVGFIFHDDAKRLDRNAKNRYTV | binds
pvr2/eIF4E1 (pvr2^+) with the single mutation K71R (protein, UniProt A0A1U8GR65 1-228) MATAEMEKTTTFDEAEKVKLNANEADDEVEEGEIVEETDDTTSYLSKEIATKHPLEHSWTFWFDNPVAKSRQAAWGSSLRNVYTFSTVEDFWGAYNNIHHPSKLVVGADLHCFKHKIEPKWEDPVCANGGTWKMSFSKGKSDTSWLYTLLAMIGHQFDHEDEICGAVVSVRGKGEKISLWTKNAANETAQVSIGKQWKQFLDYSDSVGFIFHDDAKRLDRNAKNRYTV | binds
pvr2/eIF4E1 (pvr2^+) with the single mutation V105I (protein, UniProt A0A1U8GR65 1-228) MATAEMEKTTTFDEAEKVKLNANEADDEVEEGEIVEETDDTTSYLSKEIATKHPLEHSWTFWFDNPVAKSKQAAWGSSLRNVYTFSTVEDFWGAYNNIHHPSKLIVGADLHCFKHKIEPKWEDPVCANGGTWKMSFSKGKSDTSWLYTLLAMIGHQFDHEDEICGAVVSVRGKGEKISLWTKNAANETAQVSIGKQWKQFLDYSDSVGFIFHDDAKRLDRNAKNRYTV | binds
